According to patent US10413541B2, “Oxabicycloheptanes and oxabicycloheptenes for the treatment of depressive and stress disorders” (LIXTE BIOTECHNOLOGY, INC., priority 2015, dated 2019):
At least one structure is not confirmed: it was looked up by name or label, or the drawing left a doubt.

System: GABAB-GIRK currents in LHb neurons
Type: cell-based
Conditions: KN93 10 μM in the internal solution; FsE mice

`COc1ccc(S(=O)(=O)N(CCO)c2ccccc2CN(C)C/C=C/c2ccc(Cl)cc2)cc1` [KN93] was tested, and the I-baclofen current was 57.810.38 pA.
